# In PubChem BioAssay AID504834 (National Center for Advancing Translational Sciences (NCATS), 2011):
# The whole screen tested about 320,000 compounds, of which about 22,000 (6.9%) were called active. The shares of active, inactive and inconclusive entries below differ from those in the screen. Calls follow the shape of the dose curve; as a rule, active = well fitted inhibition curve with a large enough effect; inconclusive = small, poorly fitted or top-dose-only effect, or another doubt; inactive = no such curve, though single readings can be large or run the other way. Potencies beside an inconclusive call are fits to weak or partial responses and may not hold up.
# Assay: Primary qHTS for delayed death inhibitors of the malarial parasite plastid, 96 hour incubation
# Settings: P. falciparum luciferase reporter growth; series mostly up to 28.7 µM
# In short: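 Erythrocytes infected with luciferase-expressing P. falciparum were dispensed at 2% hematocrit and 0.05% parasitemia (final), then incubated with compounds 96 hours at 37 C in 5% CO2. Luminescence after detection reagent addition reported growth.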
# Potency is read from the fitted curve at half-maximal effect.
row,SMILES,Potency
1,O=C(Nc1cccc(C(F)(F)F)c1)c1csc(-c2ccncc2)n1,"inconclusive: 11.7 µM [inhibitor, single point]"
2,CCCn1ncc(CN2CCCC(C(=O)c3cccc(OC(C)C)c3)C2)c1C (centres undefined),active: 11.7 µM
3,CC(C)CC(C(=O)NCc1ccccn1)N1C(=O)c2ccccc2C1=O (centres undefined),inactive
4,COc1ccc2[nH]c3c(c2c1)CCN1C(=O)N([C@@H](C)C(=O)NC2CCN(Cc4ccccc4)CC2)C(=O)[C@]31C,"inconclusive: 0.415 µM [inhibitor, full curve, poor fit]"
5,CC(=O)N1CCN(c2ccc(NS(=O)(=O)c3ccc(C)cc3)cc2)CC1,"inconclusive: 11.7 µM [inhibitor, single point]"
6,CCn1cc(CN2CCC(C(=O)Nc3cccc(-c4cccc(Cl)c4)c3)CC2)c(C)n1,inactive
7,Nc1ccccc1Nc1cc(-c2ccccc2)nn1-c1cccc(Cl)c1,"inconclusive: 13.1 µM [inhibitor, single point]"
8,Cc1cc(C)n2nc(S(=O)(=O)N(CC(C)C)CC(C)C)nc2n1,inactive
9,COc1ccc(C(=O)NNC(=O)c2ccc(S(=O)(=O)N3CCOCC3)cc2)cc1,"inconclusive: 14.7 µM [inhibitor, partial curve, poor fit]"
10,Cc1ccc(C(=O)Nc2ccc(OCc3ccccc3)cc2)s1,"inconclusive: 1.17 µM [inhibitor, full curve]"
11,COc1ccc(NC(=S)NN2CCOCC2)cc1OC,"inconclusive: 18.5 µM [inhibitor, single point]"
12,Cc1noc(C)c1CSc1nnnn1-c1ccc(Cl)cc1,"inconclusive: 10.4 µM [inhibitor, partial curve, poor fit]"
13,Cc1ccc(SCC(=O)NC(=O)Nc2ccc3c(c2)OCCO3)c(C)c1,inactive
14,O=C(Nc1nsc(-c2ccccc2)n1)c1ccc(F)cc1,"inconclusive: 13.1 µM [inhibitor, single point]"
15,Cc1ccc2c(C)nc(N/C(N)=N/S(=O)(=O)c3ccccc3)nc2c1,"inconclusive: 11.7 µM [inhibitor, single point]"
16,COC(=O)Cn1c(=NC(=O)CSC(C)=O)sc2ccccc21,"inconclusive: 20.8 µM [inhibitor, single point]"
17,CC(O)c1nc2ccccc2n1C1CCCCC1 (centres undefined),inactive
18,COc1ccc(/C=C/C2=CC(C)(C)NC(=S)N2)c(OC)c1,"inconclusive: 13.1 µM [inhibitor, partial curve, poor fit]"
19,Cc1ccc(NC(c2ccccc2)c2nc3ccccc3[nH]c2=O)cc1 (centres undefined),"inconclusive: 13.1 µM [inhibitor, single point]"

# Another view of some results above:
row	SMILES	Potency
1	O=C(Nc1cccc(C(F)(F)F)c1)c1csc(-c2ccncc2)n1	inconclusive: 11.7 µM [inhibitor, single point]
2	CCCn1ncc(CN2CCCC(C(=O)c3cccc(OC(C)C)c3)C2)c1C (centres undefined)	active: 11.7 µM
